Measurements reported in paper PMC8502911.
No constants are given. Whether binding was seen depends on the method and setting. Some entries that bind do so weakly or less than the wild type.

The chains behind the UniProt entries cited, without tags or fusion partners. Residues count along the entry.
UniProt O15379, residues 1-391: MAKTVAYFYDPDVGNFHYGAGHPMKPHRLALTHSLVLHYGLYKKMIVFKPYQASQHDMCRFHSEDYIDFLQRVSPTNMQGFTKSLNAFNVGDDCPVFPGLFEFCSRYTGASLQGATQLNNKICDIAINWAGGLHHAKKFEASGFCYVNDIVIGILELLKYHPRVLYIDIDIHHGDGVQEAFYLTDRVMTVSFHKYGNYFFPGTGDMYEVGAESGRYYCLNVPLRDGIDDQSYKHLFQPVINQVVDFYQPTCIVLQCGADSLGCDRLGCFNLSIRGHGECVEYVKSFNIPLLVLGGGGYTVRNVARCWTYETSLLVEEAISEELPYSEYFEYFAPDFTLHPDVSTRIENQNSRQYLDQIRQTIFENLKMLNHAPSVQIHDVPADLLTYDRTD

Legend:
[1] = target: T1, mouse NCoR-derived DAD domain (mNCoR 389–498) (mouse) (UniProt Q60974); test: pull-down; His-tagged DAD as bait, HDAC3 proteins as prey, in the absence of IP4; HDAC3(1–428) mixed with its caspase 7-cleaved product or with recombinant HDAC3(1–391); both purified
T1 sequence: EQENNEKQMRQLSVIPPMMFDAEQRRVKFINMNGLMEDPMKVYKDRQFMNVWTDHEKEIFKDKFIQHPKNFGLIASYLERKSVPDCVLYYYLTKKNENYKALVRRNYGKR

[2] = target: T1, mouse NCoR-derived DAD domain (mNCoR 389–498) (mouse); test: pull-down; His-tagged DAD as bait, HDAC3 proteins as prey, in the presence of IP4; HDAC3(1–428) mixed with its caspase 7-cleaved product or with recombinant HDAC3(1–391); both purified

recombinant HDAC3(1–391) (from UniProt O15379 1-391) (domain or fragment)
binding [1]: binds weakly | binding [2]: binds weakly
